Measured data: PubChem BioAssay AID743121 (NCATS, 2013)
Here is an unselected part of about 26,000 reagents tested. Over the whole deposit, 167 (0.63%) were called active. 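Calls are per gene from RSA p-values that are not deposited; an individual active-marked siRNA can sensitise only weakly.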 Unmarked entries are inactive. The numbers tell different reagents against one gene apart. Not all columns of the deposit are shown.

Assay: 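Partners whose loss is lethal together with topoisomerase I blockade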 (primary screen)
Cells: MDA-MB-231 cells, a human breast cancer line
Knock-down reagent: single siRNA against human genes, 20 nM siRNA (0.8 pmol per well)
Time to read-out: 120 h (drug added 48 h after transfection, read 72 h later)
Treatment: camptothecin 20 nM (about EC30) for 72 h; vehicle 0.1% DMSO in parallel plates
Detection: 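Cell viability by ATP luminescence (CellTiter-Glo) as % of non-targeting siRNA wells, and the log2 ratio of viability without drug over viability with camptothecin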
Scale: log2 vehicle/camptothecin viability: higher = stronger sensitisation to camptothecin
Active means: 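Each gene scored by redundant siRNA activity (RSA) over its individual siRNA ratios; a gene is called active at p < 0.001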

With knock-down of TWF1 (GeneID 5756) #1, the record shows log2 vehicle/camptothecin viability -0.931 (active). TWF1 (GeneID 5756) #2 scored log2 vehicle/camptothecin viability 1.1 (active). TWF1 (GeneID 5756) #3 gave log2 vehicle/camptothecin viability 1.76 (active). TWF1 (GeneID 5756) #4 gave log2 vehicle/camptothecin viability -0.0695 (active). For RAET1E (GeneID 135250) #1, the values are log2 vehicle/camptothecin viability -0.388. Depletion of RAET1E (GeneID 135250) #2 came out at: log2 vehicle/camptothecin viability 0.133.

RAET1E (GeneID 135250) #3 showed log2 vehicle/camptothecin viability -0.293. With knock-down of RAET1E (GeneID 135250) #4, the screen gave log2 vehicle/camptothecin viability -0.571. Knock-down of TPD52L3 (GeneID 89882) #1 came out at: log2 vehicle/camptothecin viability -0.474. For TPD52L3 (GeneID 89882) #2, the values are log2 vehicle/camptothecin viability -0.349. For TPD52L3 (GeneID 89882) #3, the values are log2 vehicle/camptothecin viability -0.526. With knock-down of TPD52L3 (GeneID 89882) #4, the record shows log2 vehicle/camptothecin viability -0.387.

For TPD52L3 (GeneID 89882) #5, the values are log2 vehicle/camptothecin viability -0.304. TPD52L3 (GeneID 89882) #6 showed log2 vehicle/camptothecin viability -0.845. For TPD52L3 (GeneID 89882) #7, the entry reads log2 vehicle/camptothecin viability 0.0547. Against TPD52L3 (GeneID 89882) #8, the values are log2 vehicle/camptothecin viability -0.453.

Looked up above.
Value for TWF1 (GeneID 5756) #1 under “log2 vehicle/camptothecin viability”: -0.931 (active)
For “log2 vehicle/camptothecin viability”, RAET1E (GeneID 135250) #3 is entered as -0.293
For “log2 vehicle/camptothecin viability”, TPD52L3 (GeneID 89882) #6 shows -0.845
For “log2 vehicle/camptothecin viability”, TPD52L3 (GeneID 89882) #7 is entered as 0.0547

Additional records follow:
CAMK2A (GeneID 815) #1 scored log2 vehicle/camptothecin viability -0.367. Silencing of CAMK2A (GeneID 815) #2 resulted in: log2 vehicle/camptothecin viability -0.0782. Silencing of CAMK2A (GeneID 815) #3 gave: log2 vehicle/camptothecin viability 0.0999. For CAMK2A (GeneID 815) #4 the deposit lists log2 vehicle/camptothecin viability -0.0827. Knock-down of ABCA6 (GeneID 23460) #1 gave: log2 vehicle/camptothecin viability 0.112. Against ABCA6 (GeneID 23460) #2, the entry reads log2 vehicle/camptothecin viability -0.0662.

ABCA6 (GeneID 23460) #3 gave log2 vehicle/camptothecin viability 0.248. ABCA6 (GeneID 23460) #4 showed log2 vehicle/camptothecin viability -0.269.
